According to the supplement of paper PMC10849652:
This is one part of the list.

The chains behind the UniProt entries cited, without tags or fusion partners. Where a name states a change or a piece, a line headed by the entry shows the natural chain unless it says otherwise.
UniProt Q8TEQ6: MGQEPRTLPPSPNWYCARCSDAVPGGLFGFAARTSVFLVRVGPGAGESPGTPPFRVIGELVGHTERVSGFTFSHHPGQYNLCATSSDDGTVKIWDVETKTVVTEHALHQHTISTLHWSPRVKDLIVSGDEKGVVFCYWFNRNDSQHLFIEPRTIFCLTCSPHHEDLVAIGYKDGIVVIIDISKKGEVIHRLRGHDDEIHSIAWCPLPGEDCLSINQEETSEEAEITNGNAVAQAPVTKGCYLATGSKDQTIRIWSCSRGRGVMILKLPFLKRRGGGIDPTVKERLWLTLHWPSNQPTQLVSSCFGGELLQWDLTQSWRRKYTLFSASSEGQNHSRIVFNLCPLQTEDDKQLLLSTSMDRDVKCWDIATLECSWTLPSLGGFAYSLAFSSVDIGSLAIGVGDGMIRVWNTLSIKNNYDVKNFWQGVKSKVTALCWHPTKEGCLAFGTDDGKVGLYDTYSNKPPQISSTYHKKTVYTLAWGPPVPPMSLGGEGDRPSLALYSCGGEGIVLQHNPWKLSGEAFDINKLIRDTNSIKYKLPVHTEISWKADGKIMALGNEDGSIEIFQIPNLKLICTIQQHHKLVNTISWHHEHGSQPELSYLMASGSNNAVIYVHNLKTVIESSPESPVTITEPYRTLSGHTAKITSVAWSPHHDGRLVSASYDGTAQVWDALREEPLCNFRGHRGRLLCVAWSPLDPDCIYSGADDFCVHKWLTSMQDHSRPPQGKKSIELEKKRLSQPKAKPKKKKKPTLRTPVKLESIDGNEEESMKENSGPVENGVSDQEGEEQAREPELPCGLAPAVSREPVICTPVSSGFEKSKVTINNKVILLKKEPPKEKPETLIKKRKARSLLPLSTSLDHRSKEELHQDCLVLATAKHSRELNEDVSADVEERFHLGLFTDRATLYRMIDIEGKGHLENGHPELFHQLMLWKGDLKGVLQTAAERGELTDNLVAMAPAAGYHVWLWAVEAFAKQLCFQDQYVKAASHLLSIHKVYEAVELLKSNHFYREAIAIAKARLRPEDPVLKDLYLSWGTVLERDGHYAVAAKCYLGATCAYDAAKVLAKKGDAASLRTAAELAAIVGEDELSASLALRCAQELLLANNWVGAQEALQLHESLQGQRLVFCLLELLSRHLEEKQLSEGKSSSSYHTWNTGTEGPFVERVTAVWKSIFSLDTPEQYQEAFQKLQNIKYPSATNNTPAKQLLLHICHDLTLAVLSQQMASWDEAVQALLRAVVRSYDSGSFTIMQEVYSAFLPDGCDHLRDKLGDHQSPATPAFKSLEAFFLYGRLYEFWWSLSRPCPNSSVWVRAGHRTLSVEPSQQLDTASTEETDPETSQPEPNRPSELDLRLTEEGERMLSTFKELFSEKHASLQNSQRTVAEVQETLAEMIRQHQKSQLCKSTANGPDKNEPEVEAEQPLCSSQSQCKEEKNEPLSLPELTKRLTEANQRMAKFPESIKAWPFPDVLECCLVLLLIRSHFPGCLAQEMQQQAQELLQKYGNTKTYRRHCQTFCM
UniProt P0CL80: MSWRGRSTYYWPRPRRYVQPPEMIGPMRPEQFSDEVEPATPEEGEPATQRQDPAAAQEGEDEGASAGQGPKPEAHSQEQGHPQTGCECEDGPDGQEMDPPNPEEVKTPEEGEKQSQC
UniProt P04406: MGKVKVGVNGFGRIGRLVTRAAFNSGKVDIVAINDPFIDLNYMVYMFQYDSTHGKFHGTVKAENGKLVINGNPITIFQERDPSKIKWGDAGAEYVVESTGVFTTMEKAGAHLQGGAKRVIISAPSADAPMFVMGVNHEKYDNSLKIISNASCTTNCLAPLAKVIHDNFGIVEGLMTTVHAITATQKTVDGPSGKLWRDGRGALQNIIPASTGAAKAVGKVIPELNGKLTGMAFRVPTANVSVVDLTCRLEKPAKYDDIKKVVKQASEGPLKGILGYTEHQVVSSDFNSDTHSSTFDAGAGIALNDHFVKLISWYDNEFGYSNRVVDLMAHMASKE
UniProt P50395: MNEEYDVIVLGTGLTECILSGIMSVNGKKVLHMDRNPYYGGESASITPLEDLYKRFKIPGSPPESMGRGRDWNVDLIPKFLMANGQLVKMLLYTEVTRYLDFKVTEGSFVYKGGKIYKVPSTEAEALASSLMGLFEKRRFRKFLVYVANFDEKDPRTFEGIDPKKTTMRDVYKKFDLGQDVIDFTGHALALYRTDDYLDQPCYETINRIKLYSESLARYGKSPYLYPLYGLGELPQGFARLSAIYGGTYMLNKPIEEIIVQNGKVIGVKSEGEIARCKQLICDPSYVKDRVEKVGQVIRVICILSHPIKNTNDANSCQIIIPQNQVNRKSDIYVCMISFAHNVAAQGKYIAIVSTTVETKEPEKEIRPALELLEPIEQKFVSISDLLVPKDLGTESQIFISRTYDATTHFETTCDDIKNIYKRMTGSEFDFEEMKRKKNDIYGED
UniProt Q8N2G8: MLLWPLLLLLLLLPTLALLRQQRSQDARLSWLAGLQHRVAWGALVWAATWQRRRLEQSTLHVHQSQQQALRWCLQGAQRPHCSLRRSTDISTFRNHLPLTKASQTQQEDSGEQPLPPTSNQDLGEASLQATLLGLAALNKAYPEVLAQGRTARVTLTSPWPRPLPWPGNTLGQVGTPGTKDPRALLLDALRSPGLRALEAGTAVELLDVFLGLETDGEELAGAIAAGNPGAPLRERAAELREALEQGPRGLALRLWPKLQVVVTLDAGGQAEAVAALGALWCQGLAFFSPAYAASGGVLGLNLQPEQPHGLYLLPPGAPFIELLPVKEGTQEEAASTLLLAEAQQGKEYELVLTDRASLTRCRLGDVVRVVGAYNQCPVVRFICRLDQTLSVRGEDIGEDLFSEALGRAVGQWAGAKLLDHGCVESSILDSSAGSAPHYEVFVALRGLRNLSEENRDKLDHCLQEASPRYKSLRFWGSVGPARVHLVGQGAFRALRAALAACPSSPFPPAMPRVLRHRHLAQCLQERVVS
UniProt O94915: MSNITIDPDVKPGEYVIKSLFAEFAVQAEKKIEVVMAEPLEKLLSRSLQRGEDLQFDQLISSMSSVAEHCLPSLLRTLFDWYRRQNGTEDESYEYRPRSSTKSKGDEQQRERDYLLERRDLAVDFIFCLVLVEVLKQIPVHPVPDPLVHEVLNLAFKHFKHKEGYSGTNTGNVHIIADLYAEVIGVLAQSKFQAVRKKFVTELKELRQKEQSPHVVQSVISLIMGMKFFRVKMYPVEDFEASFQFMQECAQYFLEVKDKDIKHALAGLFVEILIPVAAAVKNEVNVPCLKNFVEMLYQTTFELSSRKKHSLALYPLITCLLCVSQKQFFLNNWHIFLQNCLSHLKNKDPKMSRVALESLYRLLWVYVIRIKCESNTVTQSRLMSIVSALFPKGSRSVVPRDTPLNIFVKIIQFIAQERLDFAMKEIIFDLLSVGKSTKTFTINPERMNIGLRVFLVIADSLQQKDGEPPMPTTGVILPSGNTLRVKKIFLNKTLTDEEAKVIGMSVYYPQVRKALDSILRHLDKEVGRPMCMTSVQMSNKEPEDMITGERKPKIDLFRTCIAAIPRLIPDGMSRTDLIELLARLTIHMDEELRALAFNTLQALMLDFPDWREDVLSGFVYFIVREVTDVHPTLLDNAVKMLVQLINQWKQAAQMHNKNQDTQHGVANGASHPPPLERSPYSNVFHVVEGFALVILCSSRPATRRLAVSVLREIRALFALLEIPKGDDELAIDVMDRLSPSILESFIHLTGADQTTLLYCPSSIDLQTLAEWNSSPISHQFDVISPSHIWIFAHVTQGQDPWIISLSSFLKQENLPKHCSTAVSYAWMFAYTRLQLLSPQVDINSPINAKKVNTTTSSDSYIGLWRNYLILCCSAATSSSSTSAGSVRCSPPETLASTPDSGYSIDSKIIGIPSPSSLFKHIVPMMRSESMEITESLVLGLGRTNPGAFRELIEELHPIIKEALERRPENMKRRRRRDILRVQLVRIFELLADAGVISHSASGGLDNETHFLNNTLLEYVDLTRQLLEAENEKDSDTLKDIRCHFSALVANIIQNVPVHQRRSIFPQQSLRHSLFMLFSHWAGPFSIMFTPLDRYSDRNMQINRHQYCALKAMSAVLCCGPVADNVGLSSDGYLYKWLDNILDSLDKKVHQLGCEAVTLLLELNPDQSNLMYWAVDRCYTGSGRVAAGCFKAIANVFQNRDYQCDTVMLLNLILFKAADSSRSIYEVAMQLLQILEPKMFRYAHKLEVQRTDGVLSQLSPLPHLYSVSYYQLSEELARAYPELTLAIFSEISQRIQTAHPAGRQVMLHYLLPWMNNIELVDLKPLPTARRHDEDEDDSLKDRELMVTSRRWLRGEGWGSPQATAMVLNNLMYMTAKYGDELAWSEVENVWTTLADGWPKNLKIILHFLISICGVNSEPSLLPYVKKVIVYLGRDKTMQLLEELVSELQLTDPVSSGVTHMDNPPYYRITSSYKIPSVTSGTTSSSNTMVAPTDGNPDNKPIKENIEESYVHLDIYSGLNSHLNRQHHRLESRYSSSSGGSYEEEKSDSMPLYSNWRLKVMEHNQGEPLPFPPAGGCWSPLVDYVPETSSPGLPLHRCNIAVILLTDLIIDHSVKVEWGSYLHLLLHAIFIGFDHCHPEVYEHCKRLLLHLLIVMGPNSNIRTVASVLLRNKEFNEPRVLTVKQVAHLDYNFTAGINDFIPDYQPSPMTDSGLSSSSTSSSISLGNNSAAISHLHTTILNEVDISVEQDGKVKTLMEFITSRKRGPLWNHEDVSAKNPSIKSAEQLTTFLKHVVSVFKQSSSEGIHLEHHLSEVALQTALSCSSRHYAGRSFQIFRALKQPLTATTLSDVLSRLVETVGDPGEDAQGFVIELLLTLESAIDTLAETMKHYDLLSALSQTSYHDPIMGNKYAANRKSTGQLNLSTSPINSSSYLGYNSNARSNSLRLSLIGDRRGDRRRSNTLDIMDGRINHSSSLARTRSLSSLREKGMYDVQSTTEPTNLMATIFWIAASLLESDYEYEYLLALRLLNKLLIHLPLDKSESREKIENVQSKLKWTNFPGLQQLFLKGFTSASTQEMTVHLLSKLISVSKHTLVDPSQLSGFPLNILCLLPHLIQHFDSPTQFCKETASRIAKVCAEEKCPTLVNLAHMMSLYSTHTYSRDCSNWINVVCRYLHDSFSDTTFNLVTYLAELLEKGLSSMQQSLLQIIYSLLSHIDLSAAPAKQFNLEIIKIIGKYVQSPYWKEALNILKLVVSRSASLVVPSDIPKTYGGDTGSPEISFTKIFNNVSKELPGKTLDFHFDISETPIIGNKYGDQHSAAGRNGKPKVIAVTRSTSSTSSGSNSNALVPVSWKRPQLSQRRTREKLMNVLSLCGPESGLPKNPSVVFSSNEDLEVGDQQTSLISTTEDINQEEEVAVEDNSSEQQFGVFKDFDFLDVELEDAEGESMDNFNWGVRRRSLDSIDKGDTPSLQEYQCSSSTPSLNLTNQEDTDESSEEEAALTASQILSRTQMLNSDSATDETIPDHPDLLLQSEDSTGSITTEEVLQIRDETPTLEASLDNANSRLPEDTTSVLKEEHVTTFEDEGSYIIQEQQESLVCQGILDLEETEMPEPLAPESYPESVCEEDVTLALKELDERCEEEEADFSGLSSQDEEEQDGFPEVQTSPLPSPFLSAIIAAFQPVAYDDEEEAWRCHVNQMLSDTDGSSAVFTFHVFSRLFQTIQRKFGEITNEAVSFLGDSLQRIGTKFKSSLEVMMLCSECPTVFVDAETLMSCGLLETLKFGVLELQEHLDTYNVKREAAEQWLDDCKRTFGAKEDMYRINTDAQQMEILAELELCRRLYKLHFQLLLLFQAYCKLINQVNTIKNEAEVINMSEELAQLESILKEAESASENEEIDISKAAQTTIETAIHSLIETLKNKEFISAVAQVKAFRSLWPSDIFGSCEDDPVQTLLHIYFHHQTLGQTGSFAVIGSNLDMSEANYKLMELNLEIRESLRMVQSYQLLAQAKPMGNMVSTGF
UniProt Q9C0B1, whole entry, looked up: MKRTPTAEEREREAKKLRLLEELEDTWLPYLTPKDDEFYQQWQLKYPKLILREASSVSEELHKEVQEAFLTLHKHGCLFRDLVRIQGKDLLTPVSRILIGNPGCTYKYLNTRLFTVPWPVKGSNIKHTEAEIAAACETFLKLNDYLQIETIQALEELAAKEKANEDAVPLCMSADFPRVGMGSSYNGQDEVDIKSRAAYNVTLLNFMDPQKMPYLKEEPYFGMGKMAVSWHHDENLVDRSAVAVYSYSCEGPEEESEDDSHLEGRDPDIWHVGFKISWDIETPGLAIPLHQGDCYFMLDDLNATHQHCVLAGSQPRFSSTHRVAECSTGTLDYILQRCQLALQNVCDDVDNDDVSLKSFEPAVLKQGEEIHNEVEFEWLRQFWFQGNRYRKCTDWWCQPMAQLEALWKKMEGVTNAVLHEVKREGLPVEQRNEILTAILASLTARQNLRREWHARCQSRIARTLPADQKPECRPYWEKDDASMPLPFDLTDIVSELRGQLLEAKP
UniProt Q9H0R8, whole entry, looked up: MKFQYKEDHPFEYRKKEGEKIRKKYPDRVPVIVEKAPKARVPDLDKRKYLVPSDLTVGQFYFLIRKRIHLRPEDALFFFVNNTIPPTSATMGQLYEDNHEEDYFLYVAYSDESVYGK

Assays:
Test in all cases: log2 fold change, soluble protein after heating vs DMSO (PISA); higher = thermal stabilisation; K562 cells, 10 uM, 30 min; active = over 0.2 and 3.5 SD of the protein, either way, in both replicates (recomputed)
[1] = compound: NC(=O)Nc1cc(-c2cccc(F)c2)sc1C(=O)N[C@H]1CCCNC1
Method in brief: (§1)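 Thermal stability values are relative to control samples and come from duplicates. They are expressed as log2 fold changes. For measurement, K562 cells (2×10^6 cells/mL) received 10 μM compound for 30 min, and aliquots were heated for 3 min over 48°C-58°C, pooled, and extracted at 4°C in PBS with 0.5% NP-40. Soluble protein, the supernatant after 21,000xg for 90 min, was quantified by TMTpro 16plex LC-MS/MS with equalised channel sums.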

[2] = compound: NC(=O)c1cnc(N[C@@H]2CCCC[C@@H]2N)nc1Nc1cccc(-n2nccn2)c1
Method in brief: as §1

[3] = compound: NC1(c2ccc(-c3nc4ccn5c(=O)[nH]nc5c4cc3-c3ccccc3)cc2)CCC1
Method in brief: as §1

[4] = compound: NCC(=O)Nc1ccc(-n2nc(C(F)(F)F)cc2-c2ccc3c(ccc4ccccc43)c2)cc1
Method in brief: as §1

[5] = compound: Nc1ccccc1NC(=O)c1ccc(CNC(=O)OCc2cccnc2)cc1 [entinostat]
Method in brief: as §1

[6] = compound: O=C(CCCCCCC(=O)Nc1ccccc1)NO [vorinostat]
Method in brief: as §1

[7] = compound: O=C(CCCCCCNC(=O)c1cnc(N(c2ccccc2)c2ccccc2Cl)nc1)NO [citarinostat]
Method in brief: as §1

[8] = compound: O=C(O)c1ccc2c(c1)nc(Nc1cccc(Cl)c1)c1ccncc12 [silmitasertib]
Method in brief: as §1

[9] = compound: O=C1NC(=O)C(c2cnc3ccccn23)=C1c1cn2c3c(cc(F)cc13)CN(C(=O)N1CCCCC1)CC2
Method in brief: as §1

[10] = compound: c1cc(OCCN2CCCCC2)cc(-c2n[nH]c3ccc(-c4nnc[nH]4)cc23)c1
Method in brief: as §1

Target	log2 fold change [1]	log2 fold change [2]	log2 fold change [3]	log2 fold change [4]	log2 fold change [5]	log2 fold change [6]	log2 fold change [7]	log2 fold change [8]	log2 fold change [9]	log2 fold change [10]
GEMIN5 (UniProt Q8TEQ6)	inactive: -0.011	inactive: -0.018	inactive: -0.133	inactive: -0.015	inactive: 0.029	inactive: -0.046	inactive: -0.065	inactive: 0.009	inactive: -0.057	inactive: -0.034
GALNT11 (UniProt Q8NCW6)	inactive: 0.001	inactive: -0.119	inactive: -0.224	inactive: -0.023	inactive: -0.012	inactive: 0.01	inactive: 0.079	inactive: 0.027	inactive: -0.021	inactive: 0.002
GALNT5 (UniProt Q7Z7M9)	inactive: -0.056	inactive: 0.008	inactive: -0.009	inactive: -0.019	inactive: -0.014	inactive: -0.071	inactive: 0.009	inactive: -0.003	inactive: -0.016	inactive: -0.018
GAGE12F (UniProt P0CL80)	inactive: 0.029	inactive: -0.013	inactive: 0.083	inactive: -0.059	inactive: 0.031	inactive: 0.024	inactive: 0	inactive: 0.01	inactive: 0.021	inactive: -0.08
GALE (UniProt Q14376)	inactive: -0.058	inactive: -0.065	inactive: -0.075	inactive: -0.064	inactive: -0.026	inactive: 0	inactive: 0.056	inactive: -0.069	inactive: -0.148	inactive: 0.018
GAPVD1 isoform 6 (UniProt Q14C86)	inactive: 0.009	inactive: -0.077	inactive: -0.139	inactive: -0.073	inactive: 0.049	inactive: 0.063	inactive: 0.087	inactive: 0.124	inactive: 0.003	inactive: -0.048
FYB1 isoform 3 (UniProt O15117)	inactive: -0.045	inactive: 0.007	inactive: 0.017	inactive: 0.02	inactive: 0.025	inactive: -0.02	inactive: 0.093	inactive: -0.097	inactive: -0.037	inactive: -0.002
GAPDH (UniProt P04406)	inactive: 0.047	inactive: 0.096	inactive: 0.076	inactive: 0.106	inactive: -0.009	inactive: -0.002	inactive: 0.016	inactive: -0.062	inactive: 0.001	inactive: 0.001
GCLC (UniProt P48506)	inactive: -0.013	inactive: 0.005	inactive: -0.152	inactive: -0.061	inactive: 0.02	inactive: 0.064	inactive: 0.035	inactive: -0.024	inactive: -0.041	inactive: -0.025
GDI2 (UniProt P50395)	inactive: -0.026	inactive: -0.036	inactive: -0.003	inactive: -0.02	inactive: -0.007	inactive: 0.01	inactive: -0.029	inactive: -0.023	inactive: -0.051	inactive: -0.004
GATA1 (UniProt P15976)	inactive: 0.009	inactive: 0.012	inactive: -0.018	inactive: 0.059	inactive: -0.084	inactive: -0.164	inactive: -0.166	inactive: 0.065	inactive: -0.039	inactive: -0.096
GHDC (UniProt Q8N2G8)	inactive: -0.021	inactive: 0.013	inactive: 0.005	inactive: -0.018	inactive: 0.004	inactive: -0.023	inactive: 0.045	inactive: 0.001	inactive: -0.045	inactive: -0.03
GDPD1 (UniProt Q8N9F7)	inactive: -0.024	inactive: 0.144	inactive: 0.067	inactive: 0.003	inactive: -0.011	inactive: -0.141	inactive: 0.051	inactive: -0.039	inactive: 0.096	inactive: -0.038
FYCO1 isoform 4 (UniProt Q9BQS8)	inactive: 0.023	inactive: -0.047	inactive: -0.183	inactive: -0.073	inactive: 0	inactive: 0.132	inactive: 0.152	inactive: 0.03	inactive: 0.011	inactive: -0.175
GALK2 (UniProt Q01415)	inactive: -0.038	inactive: -0.022	inactive: -0.028	inactive: -0.034	inactive: 0.003	inactive: -0.043	inactive: 0.019	inactive: 0.005	inactive: -0.065	inactive: -0.055
FRYL (UniProt O94915)	inactive: -0.044	inactive: 0.007	inactive: -0.1	inactive: -0.009	inactive: 0.013	inactive: 0.014	inactive: 0.019	inactive: 0.011	inactive: 0.03	inactive: -0.086
GAK (UniProt O14976)	inactive: 1.52	inactive: 0.465	inactive: 0.145	inactive: 1.4	inactive: -0.072	inactive: -0.01	inactive: -0.244	inactive: 0.607	inactive: 0.236	inactive: 0.687
GGT7 (UniProt Q9UJ14)	inactive: -0.034	inactive: 0.04	inactive: -0.076	active: 0.288	inactive: -0.081	inactive: 0.062	inactive: 0.058	inactive: -0.009	inactive: -0.061	inactive: 0.002
GDI1 (UniProt P31150)	inactive: -0.018	inactive: -0.066	inactive: -0.051	inactive: -0.04	inactive: -0.016	inactive: 0.022	inactive: 0.014	inactive: -0.012	inactive: -0.037	inactive: -0.04
FTO (UniProt Q9C0B1)	inactive: -0.022	inactive: -0.012	inactive: -0.037	inactive: 0.045	inactive: -0.05	inactive: 0.013	inactive: 0.059	inactive: 0.004	inactive: -0.014	inactive: -0.029
GALNT1 (UniProt Q10472)	inactive: -0.016	inactive: -0.012	inactive: -0.068	inactive: -0.016	inactive: -0.027	inactive: 0.067	inactive: 0.011	inactive: -0.007	inactive: -0.121	inactive: 0.046
GEMIN2 (UniProt O14893)	inactive: -0.05	inactive: -0.015	inactive: 0.017	inactive: -0.116	inactive: -0.055	inactive: 0.102	inactive: -0.103	inactive: 0.038	active: 0.375	inactive: 0.073
GGPS1 (UniProt O95749)	inactive: -0.02	inactive: -0.024	inactive: -0.003	inactive: -0.033	inactive: -0.034	inactive: -0.071	inactive: -0.016	inactive: 0.013	inactive: -0.043	inactive: -0.028
GCLM (UniProt P48507)	inactive: -0.028	inactive: 0.073	inactive: -0.088	inactive: -0.075	inactive: 0.093	inactive: 0.051	inactive: 0.074	inactive: 0.077	inactive: -0.022	inactive: -0.004
FTH1 (UniProt P02794)	inactive: -0.009	inactive: -0.032	inactive: -0.031	inactive: 0.063	inactive: 0.039	inactive: 0.011	inactive: 0.066	inactive: 0.049	inactive: 0	inactive: -0.036
GABARAPL1 isoform 2 (UniProt Q9H0R8)	inactive: -0.051	inactive: -0.13	active: -0.252	inactive: -0.134	inactive: -0.009	inactive: -0.028	inactive: 0.038	inactive: -0.083	inactive: -0.049	inactive: 0.021
GGCX (UniProt P38435)	inactive: 0.091	inactive: -0.002	inactive: -0.044	inactive: -0.069	inactive: 0.283	inactive: 0.112	inactive: 0.019	inactive: 0.184	inactive: -0.072	inactive: -0.119

Reformatted bar-delimited: entries from further up
Target | log2 fold change [1] | log2 fold change [2] | log2 fold change [3] | log2 fold change [4] | log2 fold change [5] | log2 fold change [6] | log2 fold change [7] | log2 fold change [8] | log2 fold change [9] | log2 fold change [10]
GATA1 (UniProt P15976) | inactive: 0.009 | inactive: 0.012 | inactive: -0.018 | inactive: 0.059 | inactive: -0.084 | inactive: -0.164 | inactive: -0.166 | inactive: 0.065 | inactive: -0.039 | inactive: -0.096
GHDC (UniProt Q8N2G8) | inactive: -0.021 | inactive: 0.013 | inactive: 0.005 | inactive: -0.018 | inactive: 0.004 | inactive: -0.023 | inactive: 0.045 | inactive: 0.001 | inactive: -0.045 | inactive: -0.03
